The text below walks through data of publication doi:10.1101/2022.08.09.503213 (bioRxiv, 2022).

The chains behind the UniProt entries cited, without tags or fusion partners. Where a name states a change or a piece, a line headed by the entry shows the natural chain unless it says otherwise.
UniProt Q96RY7, whole entry: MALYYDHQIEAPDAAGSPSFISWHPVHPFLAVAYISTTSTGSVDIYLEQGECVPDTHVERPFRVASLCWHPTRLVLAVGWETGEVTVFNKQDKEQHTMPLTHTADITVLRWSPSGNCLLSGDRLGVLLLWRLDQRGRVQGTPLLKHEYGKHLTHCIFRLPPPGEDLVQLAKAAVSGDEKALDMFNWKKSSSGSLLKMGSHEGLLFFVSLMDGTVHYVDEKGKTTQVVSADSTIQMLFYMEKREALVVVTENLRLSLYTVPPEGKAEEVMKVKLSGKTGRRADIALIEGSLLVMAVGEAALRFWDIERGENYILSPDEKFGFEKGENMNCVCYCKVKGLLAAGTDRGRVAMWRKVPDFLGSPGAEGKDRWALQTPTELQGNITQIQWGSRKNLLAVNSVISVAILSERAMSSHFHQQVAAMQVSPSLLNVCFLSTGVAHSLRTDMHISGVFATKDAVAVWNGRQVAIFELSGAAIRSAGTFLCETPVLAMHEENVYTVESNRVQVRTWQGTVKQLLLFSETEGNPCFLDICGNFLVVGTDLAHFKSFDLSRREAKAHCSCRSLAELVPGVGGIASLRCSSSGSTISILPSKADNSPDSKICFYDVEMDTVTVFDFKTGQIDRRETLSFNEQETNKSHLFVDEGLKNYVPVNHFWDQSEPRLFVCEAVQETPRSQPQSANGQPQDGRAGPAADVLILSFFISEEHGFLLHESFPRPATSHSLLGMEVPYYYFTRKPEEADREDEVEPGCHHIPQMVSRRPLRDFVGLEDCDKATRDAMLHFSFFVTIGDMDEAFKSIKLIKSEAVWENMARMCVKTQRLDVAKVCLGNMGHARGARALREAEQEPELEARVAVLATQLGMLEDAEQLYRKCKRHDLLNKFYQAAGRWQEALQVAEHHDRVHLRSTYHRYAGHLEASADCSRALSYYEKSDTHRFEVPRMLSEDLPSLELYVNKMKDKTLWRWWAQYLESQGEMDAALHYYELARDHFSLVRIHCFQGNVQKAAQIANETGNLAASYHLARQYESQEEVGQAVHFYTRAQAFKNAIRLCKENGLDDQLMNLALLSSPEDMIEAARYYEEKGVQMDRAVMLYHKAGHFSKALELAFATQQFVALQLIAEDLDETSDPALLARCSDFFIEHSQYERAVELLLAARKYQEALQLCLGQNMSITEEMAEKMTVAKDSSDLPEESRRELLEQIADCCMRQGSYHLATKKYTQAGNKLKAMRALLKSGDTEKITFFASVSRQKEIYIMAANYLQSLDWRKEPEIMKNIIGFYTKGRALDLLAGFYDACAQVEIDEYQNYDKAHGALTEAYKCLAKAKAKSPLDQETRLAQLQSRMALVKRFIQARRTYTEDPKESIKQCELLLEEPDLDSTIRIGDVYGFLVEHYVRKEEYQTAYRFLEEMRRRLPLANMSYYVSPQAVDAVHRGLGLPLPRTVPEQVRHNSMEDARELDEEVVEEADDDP

For experiment [1], the target named is IFT140 from ^ZZIFT140 (N-terminal ZZ-tag) (human) (UniProt Q96RY7). Description: cryo-EM structure.
The target in experiment [2] is T1, IFT122 (untagged) (human) (UniProt Q9HBG6).
T1 sequence: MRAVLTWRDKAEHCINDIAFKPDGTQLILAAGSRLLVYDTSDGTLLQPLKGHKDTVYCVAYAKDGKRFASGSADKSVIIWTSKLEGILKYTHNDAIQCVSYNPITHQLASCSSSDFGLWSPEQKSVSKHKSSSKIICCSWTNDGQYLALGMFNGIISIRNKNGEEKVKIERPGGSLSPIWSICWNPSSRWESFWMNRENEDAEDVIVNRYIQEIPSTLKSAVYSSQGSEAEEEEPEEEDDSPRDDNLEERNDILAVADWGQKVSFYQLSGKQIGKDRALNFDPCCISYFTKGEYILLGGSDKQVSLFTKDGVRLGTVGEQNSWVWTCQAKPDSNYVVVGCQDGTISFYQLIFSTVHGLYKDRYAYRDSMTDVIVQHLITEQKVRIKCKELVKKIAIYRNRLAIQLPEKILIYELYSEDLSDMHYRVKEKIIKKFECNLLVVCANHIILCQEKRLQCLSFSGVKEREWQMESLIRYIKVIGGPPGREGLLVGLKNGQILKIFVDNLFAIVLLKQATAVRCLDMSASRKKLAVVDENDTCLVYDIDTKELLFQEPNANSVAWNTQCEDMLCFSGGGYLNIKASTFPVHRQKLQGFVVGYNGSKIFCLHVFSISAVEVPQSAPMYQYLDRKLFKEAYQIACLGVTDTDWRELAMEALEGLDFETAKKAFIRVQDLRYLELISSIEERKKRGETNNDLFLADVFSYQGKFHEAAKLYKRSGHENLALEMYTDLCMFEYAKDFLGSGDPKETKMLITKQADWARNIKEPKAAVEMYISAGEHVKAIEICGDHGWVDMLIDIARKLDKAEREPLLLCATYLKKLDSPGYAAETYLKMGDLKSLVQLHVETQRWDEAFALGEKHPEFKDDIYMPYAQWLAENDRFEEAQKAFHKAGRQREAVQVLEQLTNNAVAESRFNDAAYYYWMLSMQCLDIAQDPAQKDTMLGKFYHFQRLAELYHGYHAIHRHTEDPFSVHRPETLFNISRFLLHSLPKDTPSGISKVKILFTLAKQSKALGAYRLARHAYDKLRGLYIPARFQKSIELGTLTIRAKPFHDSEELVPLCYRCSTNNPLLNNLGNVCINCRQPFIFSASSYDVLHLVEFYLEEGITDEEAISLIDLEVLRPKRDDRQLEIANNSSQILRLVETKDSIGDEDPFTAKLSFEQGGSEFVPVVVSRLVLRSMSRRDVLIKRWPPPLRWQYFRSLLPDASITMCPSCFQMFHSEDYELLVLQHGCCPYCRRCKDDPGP
Put plainly: cryo-EM structure.

No constants are given. Whether binding was seen depends on the method and setting. Some entries that bind do so weakly or less than the wild type. Sequences can lack the tags named with a protein.

B1: IFT144ΔN^FLAG (IFT144 lacking the N-terminal β-propeller domain, residues 2–349 inclusive) (domain or fragment, UniProt Q8NEZ3)
chain: MLPILGDACSTRIAYLTSLLEVTVANPVEGELPITVSVDVEPNFVAVGLYHLAVGMNNRAWFYVLGENAVKKLKDMEYLGTVASICLHSDYAAALFEGKVQLHLIESEILDAQEERETRLFPAVDDKCRILCHALTSDFLIYGTDTGVVQYFYIEDWQFVNDYRHPVSVKKIFPDPNGTRLVFIDEKSDGFVYCPVNDATYEIPDFSPTIKGVLWENWPMDKGVFIAYDDDKVYTYVFHKDTIQGAKVILAGSTKVPFAHKPLLLYNGELTCQTQSGKVNNIYLSTHGFLSNLKDTGPDELRPMLAQNLMLKRFSDAWEMCRILNDEAAWNELARACLHHMEVEFAIRVYRRIGNVGIVMSLEQIKGIEDYNLLAGHLAMFTNDYNLAQDLYLASSCPIAALEMRRDLQHWDSALQLAKHLAPDQIPFISKEYAIQLEFAGDYVNALAHYEKGITGDNKEHDEACLAGVAQMSIRMGDIRRGVNQALKHPSRVLKRDCGAILENMKQFSEAAQLYEKGLYYDKAASVYIRSKNWAKVGDLLPHVSSPKIHLQYAKAKEADGRYKEAVVAYENAKQWQSVIRIYLDHLNNPEKAVNIVRETQSLDGAKMVARFFLQLGDYGSAIQFLVMSKCNNEAFTLAQQHNKMEIYADIIGSEDTTNEDYQSIALYFEGEKRYLQAGKFFLLCGQYSRALKHFLKCPSSEDNVAIEMAIETVGQAKDELLTNQLIDHLLGENDGMPKDAKYLFRLYMALKQYREAAQTAIIIAREEQSAGNYRNAHDVLFSMYAELKSQKIKIPSEMATNLMILHSYILVKIHVKNGDHMKGARMLIRVANNISKFPSHIVPILTSTVIECHRAGLKNSAFSFAAMLMRPEYRSKIDAKYKKKIEGMVRRPDISEIEEATTPCPFCKFLLPECELLCPGCKNSIPYCIATGRHMLKDDWTVCPHCDFPALYSELKIMLNTESTCPMCSERLNAAQLKKISDCTQYLRTEEEL
With B1, the binding result in experiment [1] is “binds”.

B2: IFT139 (from ^ZZ-SNAPIFT139, TEV-cleaved) (protein, UniProt Q7Z4L5 1-1316)
chain: MDSQELKTLINYYCQERYFHHVLLVASEGIKRYGSDPVFRFYHAYGTLMEGKTQEALREFEAIKNKQDVSLCSLLALIYAHKMSPNPDREAILESDARVKEQRKGAGEKALYHAGLFLWHIGRHDKAREYIDRMIKISDGSKQGHVLKAWLDITRGKEPYTKKALKYFEEGLQDGNDTFALLGKAQCLEMRQNYSGALETVNQIIVNFPSFLPAFVKKMKLQLALQDWDQTVETAQRLLLQDSQNVEALRMQALYYVCREGDIEKASTKLENLGNTLDAMEPQNAQLFYNITLAFSRTCGRSQLILQKIQTLLERAFSLNPQQSEFATELGYQMILQGRVKEALKWYKTAMTLDETSVSALVGFIQCQLIEGQLQDADQQLEFLNEIQQSIGKSAELIYLHAVLAMKKNKRQEEVINLLNDVLDTHFSQLEGLPLGIQYFEKLNPDFLLEIVMEYLSFCPMQPASPGQPLCPLLRRCISVLETVVRTVPGLLQTVFLIAKVKYLSGDIEAAFNNLQHCLEHNPSYADAHLLLAQVYLSQEKVKLCSQSLELCLSYDFKVRDYPLYHLIKAQSQKKMGEIADAIKTLHMAMSLPGMKRIGASTKSKDRKTEVDTSHRLSIFLELIDVHRLNGEQHEATKVLQDAIHEFSGTSEEVRVTIANADLALAQGDIERALSILQNVTAEQPYFIEAREKMADIYLKHRKDKMLYITCFREIAERMANPRSFLLLGDAYMNILEPEEAIVAYEQALNQNPKDGTLASKMGKALIKTHNYSMAITYYEAALKTGQKNYLCYDLAELLLKLKWYDKAEKVLQHALAHEPVNELSALMEDGRCQVLLAKVYSKMEKLGDAITALQQARELQARVLKRVQMEQPDAVPAQKHLAAEICAEIAKHSVAQRDYEKAIKFYREALVHCETDNKIMLELARLYLAQDDPDSCLRQCALLLQSDQDNEAATMMMADLMFRKQDYEQAVFHLQQLLERKPDNYMTLSRLIDLLRRCGKLEDVPRFFSMAEKRNSRAKLEPGFQYCKGLYLWYTGEPNDALRHFNKARKDRDWGQNALYNMIEICLNPDNETVGGEVFENLDGDLGNSTEKQESVQLAVRTAEKLLKELKPQTVQGHVQLRIMENYCLMATKQKSNVEQALNTFTEIAASEKEHIPALLGMATAYMILKQTPRARNQLKRIAKMNWNAIDAEEFEKSWLLLADIYIQSAKYDMAEDLLKRCLRHNRSCCKAYEYMGYIMEKEQAYTDAALNYEMAWKYSNRTNPAVGYKLAFNYLKAKRYVDSIDICHQVLEAHPTYPKIRKDILDKARASLRP
Consider B2, for which, in experiment [2], the binding entry is “binds”.
